Test results published in patent US11000555B2, “Method for preparing a limax compound and therapeutic use thereof” (GUANGXI JIUFU BIOTECHNOLOGY CO., LTD, priority 2017, dated 2021).

Tested on: rats
Assay: Physical dependence test: induced withdrawal test for the rats
Settings: morphine hydrochloride sc twice a day, increasing 5 to 60 mg/kg, 7 days; naloxone 5 mg/kg ip day 8
Experimental: The compound group was administered (ig) twice a day according to the dose increasing principle, at daily doses of 0.5, 1.0, 1.5, 2.0, 2.5, 3.0 g/kg. The dose was increased every day from 0.5 g/kg to 3.0 g/kg on day 6 which was adopted the same on day 7. The negative control group was given (ig) the same volume of vegetable oil per day at the same time and for the same times as the compound group. On day 8, the rats in each group were given naloxone (5 mg/kg, ip) to induce withdrawal, and the withdrawal status of the rats within 30 min and the weight change one hour before and after the inducement were observed. The evaluation criteria of withdrawal symptoms of rats were established by referring to the Tomoji Yanagita evaluation criteria and our pre-experimental results (see Appendix Table 17). The withdrawal scores and weight loss values of each group of rats were statistically processed. Weight loss value=weight before inducement−weight after inducement.

In the case of CN1CC[C@]23c4c5ccc(O)c4O[C@H]2[C@@H](O)C=C[C@H]3[C@H]1C5.Cl [Morphine, Morphine hydrochloride], the Weight loss is reported as 9.5 ± 3.62 g.
